Experimental findings from the supplement of paper PMC7666118 are described below.

Chains of the proteins cited; added tags and fusions are not shown. Lines headed by an entry give the natural chain unless they say otherwise; changes in a name come on top.
UniProt P32121, whole entry: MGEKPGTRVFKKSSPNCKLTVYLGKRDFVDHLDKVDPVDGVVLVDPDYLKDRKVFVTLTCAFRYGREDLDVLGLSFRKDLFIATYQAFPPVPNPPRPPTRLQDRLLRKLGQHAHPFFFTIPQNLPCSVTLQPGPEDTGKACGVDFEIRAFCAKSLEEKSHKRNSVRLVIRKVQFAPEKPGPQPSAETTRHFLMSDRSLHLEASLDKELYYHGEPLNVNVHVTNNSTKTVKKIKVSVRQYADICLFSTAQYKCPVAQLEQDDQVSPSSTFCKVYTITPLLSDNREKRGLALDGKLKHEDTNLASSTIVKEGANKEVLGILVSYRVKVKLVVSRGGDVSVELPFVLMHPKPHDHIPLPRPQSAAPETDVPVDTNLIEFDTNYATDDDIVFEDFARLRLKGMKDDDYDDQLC
UniProt Q7Z6I6: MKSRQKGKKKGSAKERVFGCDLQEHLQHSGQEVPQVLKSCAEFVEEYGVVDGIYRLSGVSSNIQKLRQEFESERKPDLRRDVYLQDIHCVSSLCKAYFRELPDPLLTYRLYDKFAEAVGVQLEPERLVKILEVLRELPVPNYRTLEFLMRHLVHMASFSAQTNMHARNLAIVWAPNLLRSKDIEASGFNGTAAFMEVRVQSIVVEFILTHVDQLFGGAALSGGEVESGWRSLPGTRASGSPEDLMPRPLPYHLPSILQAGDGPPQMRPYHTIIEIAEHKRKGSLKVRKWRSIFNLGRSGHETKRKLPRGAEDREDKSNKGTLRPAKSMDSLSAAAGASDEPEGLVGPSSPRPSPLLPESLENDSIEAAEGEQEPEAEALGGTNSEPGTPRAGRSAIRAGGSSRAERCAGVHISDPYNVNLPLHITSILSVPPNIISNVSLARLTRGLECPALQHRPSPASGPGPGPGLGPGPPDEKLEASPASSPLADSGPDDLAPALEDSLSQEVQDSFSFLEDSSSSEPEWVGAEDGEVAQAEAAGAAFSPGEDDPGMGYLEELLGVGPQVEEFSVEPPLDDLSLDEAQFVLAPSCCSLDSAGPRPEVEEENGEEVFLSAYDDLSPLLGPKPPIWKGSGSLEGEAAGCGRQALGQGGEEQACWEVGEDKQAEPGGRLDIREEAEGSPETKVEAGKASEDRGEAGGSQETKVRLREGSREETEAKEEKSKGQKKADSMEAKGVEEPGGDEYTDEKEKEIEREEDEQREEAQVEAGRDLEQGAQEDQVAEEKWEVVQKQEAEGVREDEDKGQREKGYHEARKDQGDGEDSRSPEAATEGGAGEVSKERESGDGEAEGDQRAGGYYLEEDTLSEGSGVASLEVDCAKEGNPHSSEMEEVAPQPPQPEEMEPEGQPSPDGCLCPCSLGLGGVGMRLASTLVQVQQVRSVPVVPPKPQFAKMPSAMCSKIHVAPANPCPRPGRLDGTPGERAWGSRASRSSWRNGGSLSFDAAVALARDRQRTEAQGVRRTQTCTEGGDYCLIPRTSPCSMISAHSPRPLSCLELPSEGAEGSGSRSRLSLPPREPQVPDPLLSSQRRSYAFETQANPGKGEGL
UniProt Q66PJ3: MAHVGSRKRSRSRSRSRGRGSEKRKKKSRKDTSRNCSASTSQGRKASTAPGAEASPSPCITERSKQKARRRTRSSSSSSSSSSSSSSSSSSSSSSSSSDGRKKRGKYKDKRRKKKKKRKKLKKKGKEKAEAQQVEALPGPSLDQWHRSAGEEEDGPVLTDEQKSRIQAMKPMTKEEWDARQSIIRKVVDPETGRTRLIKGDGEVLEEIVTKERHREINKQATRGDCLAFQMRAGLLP
UniProt Q07960: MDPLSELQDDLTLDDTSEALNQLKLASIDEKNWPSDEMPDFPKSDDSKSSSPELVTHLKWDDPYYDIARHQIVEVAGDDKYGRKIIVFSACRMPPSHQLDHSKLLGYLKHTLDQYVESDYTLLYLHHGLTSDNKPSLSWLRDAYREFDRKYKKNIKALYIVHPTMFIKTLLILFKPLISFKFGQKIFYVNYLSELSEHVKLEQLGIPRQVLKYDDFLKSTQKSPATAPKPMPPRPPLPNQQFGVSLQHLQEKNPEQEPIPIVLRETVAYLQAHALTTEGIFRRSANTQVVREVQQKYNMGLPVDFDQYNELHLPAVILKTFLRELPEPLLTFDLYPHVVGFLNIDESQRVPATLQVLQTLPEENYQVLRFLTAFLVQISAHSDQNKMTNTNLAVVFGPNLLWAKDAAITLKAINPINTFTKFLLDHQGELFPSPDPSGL
UniProt Q9ULX6: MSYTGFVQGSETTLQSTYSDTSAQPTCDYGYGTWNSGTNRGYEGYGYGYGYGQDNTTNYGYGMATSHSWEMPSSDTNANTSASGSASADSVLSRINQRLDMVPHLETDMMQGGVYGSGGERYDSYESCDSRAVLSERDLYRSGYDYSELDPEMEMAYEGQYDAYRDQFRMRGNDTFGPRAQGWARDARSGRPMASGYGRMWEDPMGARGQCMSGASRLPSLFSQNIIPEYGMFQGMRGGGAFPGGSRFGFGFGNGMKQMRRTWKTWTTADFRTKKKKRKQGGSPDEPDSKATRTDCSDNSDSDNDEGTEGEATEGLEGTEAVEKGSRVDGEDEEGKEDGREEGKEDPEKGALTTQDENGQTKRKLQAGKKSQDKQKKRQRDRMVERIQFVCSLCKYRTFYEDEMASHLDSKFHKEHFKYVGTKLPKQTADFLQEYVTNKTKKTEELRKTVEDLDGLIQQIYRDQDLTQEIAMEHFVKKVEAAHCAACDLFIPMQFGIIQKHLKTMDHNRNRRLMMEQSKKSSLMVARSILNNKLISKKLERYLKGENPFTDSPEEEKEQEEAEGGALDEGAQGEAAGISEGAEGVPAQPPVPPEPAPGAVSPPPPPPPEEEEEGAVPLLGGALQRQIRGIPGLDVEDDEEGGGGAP
UniProt P49407: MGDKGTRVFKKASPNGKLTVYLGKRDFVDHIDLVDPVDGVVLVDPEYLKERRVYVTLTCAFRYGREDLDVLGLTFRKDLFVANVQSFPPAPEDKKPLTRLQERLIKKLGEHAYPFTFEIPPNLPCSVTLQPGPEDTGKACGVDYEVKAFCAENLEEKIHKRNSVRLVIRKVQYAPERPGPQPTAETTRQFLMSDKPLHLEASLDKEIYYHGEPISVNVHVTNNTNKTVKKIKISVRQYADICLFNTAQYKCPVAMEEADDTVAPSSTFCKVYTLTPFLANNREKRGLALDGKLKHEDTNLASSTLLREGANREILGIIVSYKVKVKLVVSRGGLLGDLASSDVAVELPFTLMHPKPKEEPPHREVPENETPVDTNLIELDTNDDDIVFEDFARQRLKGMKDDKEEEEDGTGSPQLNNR
UniProt Q9P2R3: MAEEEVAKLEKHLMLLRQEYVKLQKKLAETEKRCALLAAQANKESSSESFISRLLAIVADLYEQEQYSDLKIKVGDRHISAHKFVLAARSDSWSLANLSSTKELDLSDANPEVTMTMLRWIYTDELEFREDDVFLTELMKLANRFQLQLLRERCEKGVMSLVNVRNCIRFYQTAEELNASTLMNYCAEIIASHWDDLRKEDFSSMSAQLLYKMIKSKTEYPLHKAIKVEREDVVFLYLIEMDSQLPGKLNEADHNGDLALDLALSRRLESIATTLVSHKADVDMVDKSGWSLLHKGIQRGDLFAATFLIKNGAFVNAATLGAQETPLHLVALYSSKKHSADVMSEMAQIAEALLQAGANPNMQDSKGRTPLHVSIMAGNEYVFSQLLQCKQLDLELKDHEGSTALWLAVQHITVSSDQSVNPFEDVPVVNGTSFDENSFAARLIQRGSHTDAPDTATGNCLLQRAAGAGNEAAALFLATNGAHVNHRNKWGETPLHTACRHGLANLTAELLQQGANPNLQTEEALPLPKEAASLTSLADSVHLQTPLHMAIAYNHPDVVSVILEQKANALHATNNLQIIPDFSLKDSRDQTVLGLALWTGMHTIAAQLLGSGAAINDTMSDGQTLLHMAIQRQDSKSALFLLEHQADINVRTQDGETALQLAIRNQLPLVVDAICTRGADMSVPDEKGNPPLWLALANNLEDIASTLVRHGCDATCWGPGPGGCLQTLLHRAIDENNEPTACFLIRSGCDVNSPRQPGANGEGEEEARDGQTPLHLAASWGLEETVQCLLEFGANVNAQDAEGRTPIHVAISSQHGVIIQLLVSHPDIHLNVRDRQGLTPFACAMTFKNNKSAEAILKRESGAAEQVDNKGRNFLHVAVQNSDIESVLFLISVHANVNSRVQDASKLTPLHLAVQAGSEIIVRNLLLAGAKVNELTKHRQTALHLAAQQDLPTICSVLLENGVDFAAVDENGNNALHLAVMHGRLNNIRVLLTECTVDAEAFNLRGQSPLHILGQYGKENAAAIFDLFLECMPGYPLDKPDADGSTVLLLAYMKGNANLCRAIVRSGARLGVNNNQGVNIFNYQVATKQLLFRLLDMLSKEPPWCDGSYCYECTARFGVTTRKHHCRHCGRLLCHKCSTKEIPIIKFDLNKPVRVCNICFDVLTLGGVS
UniProt Q9NVT9: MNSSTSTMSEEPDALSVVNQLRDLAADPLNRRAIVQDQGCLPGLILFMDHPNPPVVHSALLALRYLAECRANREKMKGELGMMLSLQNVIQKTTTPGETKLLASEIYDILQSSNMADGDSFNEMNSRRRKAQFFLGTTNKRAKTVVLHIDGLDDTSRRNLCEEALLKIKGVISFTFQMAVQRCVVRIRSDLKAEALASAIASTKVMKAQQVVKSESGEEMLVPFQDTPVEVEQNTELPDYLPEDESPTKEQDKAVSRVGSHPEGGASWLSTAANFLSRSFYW
UniProt Q9Y2T2: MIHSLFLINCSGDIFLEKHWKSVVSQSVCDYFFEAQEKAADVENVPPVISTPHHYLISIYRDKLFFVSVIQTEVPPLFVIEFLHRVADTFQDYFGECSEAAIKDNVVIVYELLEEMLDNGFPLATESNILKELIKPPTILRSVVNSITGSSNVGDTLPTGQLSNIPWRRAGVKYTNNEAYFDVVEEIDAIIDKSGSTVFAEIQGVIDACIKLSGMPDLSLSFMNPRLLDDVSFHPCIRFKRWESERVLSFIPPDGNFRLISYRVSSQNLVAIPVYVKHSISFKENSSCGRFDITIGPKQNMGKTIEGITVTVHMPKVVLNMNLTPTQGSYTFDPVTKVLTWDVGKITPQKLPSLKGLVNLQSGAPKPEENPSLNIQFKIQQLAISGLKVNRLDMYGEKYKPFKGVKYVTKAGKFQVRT
UniProt P05089: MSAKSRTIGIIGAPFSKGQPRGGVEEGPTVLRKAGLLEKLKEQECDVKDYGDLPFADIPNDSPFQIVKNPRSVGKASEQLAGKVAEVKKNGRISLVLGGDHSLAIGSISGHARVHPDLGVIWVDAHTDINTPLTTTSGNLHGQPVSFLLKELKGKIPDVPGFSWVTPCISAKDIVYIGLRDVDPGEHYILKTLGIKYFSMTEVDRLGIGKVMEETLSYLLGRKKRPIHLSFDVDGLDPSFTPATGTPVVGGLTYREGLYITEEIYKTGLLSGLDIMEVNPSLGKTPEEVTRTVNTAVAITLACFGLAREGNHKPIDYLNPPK
UniProt P04424, whole entry: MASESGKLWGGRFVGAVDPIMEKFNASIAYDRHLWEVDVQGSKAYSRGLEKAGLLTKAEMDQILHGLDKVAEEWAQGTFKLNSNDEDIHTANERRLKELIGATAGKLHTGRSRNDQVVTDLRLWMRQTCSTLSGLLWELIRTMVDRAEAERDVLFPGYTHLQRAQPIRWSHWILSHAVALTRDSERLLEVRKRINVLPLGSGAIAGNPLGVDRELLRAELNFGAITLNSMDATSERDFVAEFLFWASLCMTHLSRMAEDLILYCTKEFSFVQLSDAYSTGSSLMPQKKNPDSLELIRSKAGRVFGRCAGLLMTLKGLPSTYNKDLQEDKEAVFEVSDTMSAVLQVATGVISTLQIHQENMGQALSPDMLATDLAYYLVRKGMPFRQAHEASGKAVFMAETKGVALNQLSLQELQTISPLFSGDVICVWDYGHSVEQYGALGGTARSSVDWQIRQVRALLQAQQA
UniProt Q99943: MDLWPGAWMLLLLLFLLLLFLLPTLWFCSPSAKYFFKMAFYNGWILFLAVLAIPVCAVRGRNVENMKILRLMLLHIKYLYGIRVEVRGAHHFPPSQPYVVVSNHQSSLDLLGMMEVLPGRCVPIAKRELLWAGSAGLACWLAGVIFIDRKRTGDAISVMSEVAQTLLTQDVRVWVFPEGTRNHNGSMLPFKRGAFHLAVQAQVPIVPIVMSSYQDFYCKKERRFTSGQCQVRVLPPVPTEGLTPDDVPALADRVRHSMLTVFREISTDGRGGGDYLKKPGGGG
UniProt P18846: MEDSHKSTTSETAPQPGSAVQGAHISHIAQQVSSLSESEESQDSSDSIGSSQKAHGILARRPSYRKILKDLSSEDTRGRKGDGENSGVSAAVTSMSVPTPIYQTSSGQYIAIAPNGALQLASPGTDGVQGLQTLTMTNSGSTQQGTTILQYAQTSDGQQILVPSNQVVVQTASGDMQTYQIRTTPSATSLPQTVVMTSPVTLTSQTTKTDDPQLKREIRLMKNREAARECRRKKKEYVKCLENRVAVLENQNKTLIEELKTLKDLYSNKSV

The other results are listed elsewhere or left out.

Compound in this experiment: COc1ccc(Cn2ccc3cc(C)c(C(=O)NO)cc32)cc1
Description: dose-dependent thermal stabilisation call (2D-TPP, DLPTP, 10% FDR) (binary (1 = stabilised)); higher = stabilised by the compound. To be noted: system: HL-60 intact cells; concentration range 0.04-10 µM. The protocol:
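2D thermal proteome profiling in intact HL-60 cells treated with BRD-3811 (0, 0.04, 0.29, 2, 10 uM) for 90 min at 37 C, then heated 3 min at one of 12 temperatures (42-63.9 C). Soluble protein was quantified by TMT10 MS. The value is the DLPTP call of the paper: dose-dependent thermal stabilisation over all temperatures at 10% FDR (F-test of a dose-response against a flat model); one experiment, one call per tested protein.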
For the target AK3L1, the “dose-dependent thermal stabilisation call” value is inactive: 0.
APOOL (UniProt Q6UXV4): the “dose-dependent thermal stabilisation call” value is inactive: 0.
Regarding ARRDC1 (UniProt Q8N5I2), the “dose-dependent thermal stabilisation call” value was inactive: 0.
For ARRB2 (UniProt P32121) the value was inactive: 0; for ARHGAP30 (UniProt Q7Z6I6), inactive: 0.
For the target ARL6IP4 (UniProt Q66PJ3), the “dose-dependent thermal stabilisation call” value is inactive: 0.
With ASF1B (UniProt Q9NVP2), the “dose-dependent thermal stabilisation call” value was inactive: 0.
For ALDOA (UniProt P04075) the value was inactive: 0; for ARHGAP1 (UniProt Q07960), inactive: 0; for ASNA1 (UniProt O43681), inactive: 0.
For AKAP8L (UniProt Q9ULX6) the value was inactive: 0.
For ARRB1 (UniProt P49407), the “dose-dependent thermal stabilisation call” value was inactive: 0.
AHCTF1 (UniProt Q8WYP5): the “dose-dependent thermal stabilisation call” value is inactive: 0.
Turning to ATAD1 (UniProt Q8NBU5), the “dose-dependent thermal stabilisation call” value was inactive: 0.
As for ASCC3 (UniProt Q8N3C0), the “dose-dependent thermal stabilisation call” value is inactive: 0.
Then APBA3 (UniProt O96018), with inactive: 0; and ANKFY1 (UniProt Q9P2R3), with inactive: 0; and AGA (UniProt P20933), with inactive: 0.
In the case of ALS2CR4 (UniProt Q96Q45), the “dose-dependent thermal stabilisation call” value is inactive: 0.
Consider ARMC1 (UniProt Q9NVT9), for which the “dose-dependent thermal stabilisation call” value is inactive: 0.
Then AP3M1 (UniProt Q9Y2T2), with inactive: 0; and ARG1 (UniProt P05089), with inactive: 0; and APOBEC3G (UniProt Q9HC16), with inactive: 0.
Then ASL (UniProt P04424), with inactive: 0.
For AP2B1 (UniProt P63010) the value was inactive: 0.
For ATG4B (UniProt Q9Y4P1), the “dose-dependent thermal stabilisation call” value was inactive: 0.
As for AGPAT1 (UniProt Q99943), the “dose-dependent thermal stabilisation call” value is inactive: 0.
Then APOA1BP (UniProt Q8NCW5), with inactive: 0; and ALDH6A1 (UniProt Q02252), with inactive: 0; and AMBRA1 (UniProt Q9C0C7), with inactive: 0.
Take ALG9 (UniProt Q9H6U8): the “dose-dependent thermal stabilisation call” value is inactive: 0.
Consider ANGEL2 (UniProt Q5VTE6), for which the “dose-dependent thermal stabilisation call” value was inactive: 0.
Then ANXA2 (UniProt P07355), with inactive: 0; and ATF1 (UniProt P18846), with inactive: 0; and AGL (UniProt P35573), with inactive: 0.
Regarding AGK (UniProt Q53H12), the “dose-dependent thermal stabilisation call” value is inactive: 0.
